Assay results reported in paper PMC3100329.

Legend:
[1] = biological target: T1, rat trefoil factor 3 (rat (endogenous in rat intestinal mucus)) (UniProt Q03191); test: co-IP; rat intestinal mucus dissolved in RIPA buffer with 100 mM DTT (reduced) before immunoprecipitation with anti-rTFF3, anti-rIgGFcγBP or anti-rMuc2 polyclonal antibodies; blotted with each antibody
T1 sequence: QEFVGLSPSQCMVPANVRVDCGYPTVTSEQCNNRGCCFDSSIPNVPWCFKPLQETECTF

[2] = biological target: T1, rat trefoil factor 3 (rat (endogenous in rat intestinal mucus)); test: co-IP; non-reduced rat intestinal mucus (loose and firm layer), RIPA buffer soluble supernatant; immunoprecipitated 16 h at 4°C with anti-rTFF3, anti-rIgGFcγBP or anti-rMuc2 polyclonal serum and protein-G agarose; immunoprecipitates reduced with 100 mM DTT before SDS-PAGE and blotting; preimmune serum as control
[3] = biological target: rat Muc2 C-terminal domain (rat (endogenous in rat intestinal mucus)); test: co-IP; rat intestinal mucus dissolved in RIPA buffer with 100 mM DTT (reduced) before immunoprecipitation with anti-rTFF3, anti-rIgGFcγBP or anti-rMuc2 polyclonal antibodies; blotted with each antibody
[4] = biological target: rat IgGFc gamma binding protein C-terminal domain (rat (endogenous in rat intestinal mucus)); test: as above
[5] = biological target: rat Muc2 C-terminal domain (rat (endogenous in rat intestinal mucus)); test: co-IP; non-reduced rat intestinal mucus (loose and firm layer), RIPA buffer soluble supernatant; immunoprecipitated 16 h at 4°C with anti-rTFF3, anti-rIgGFcγBP or anti-rMuc2 polyclonal serum and protein-G agarose; immunoprecipitates reduced with 100 mM DTT before SDS-PAGE and blotting; preimmune serum as control
[6] = biological target: rat IgGFc gamma binding protein C-terminal domain (rat (endogenous in rat intestinal mucus)); test: as above

For “rat Muc2 C-terminal domain (domain or fragment)”, which binding [1] is on record?
The binding was “no binding (only mucus pretreated with 100 mM DTT)”.

And the binding [2]?
Its binding is “binds”.

With “rat IgGFc gamma binding protein C-terminal domain (domain or fragment)” as the molecule, how does the binding [1] read?
Its binding is “no binding (only mucus pretreated with 100 mM DTT)”.

And the binding [2]?
Its binding is “binds”.

B1: rat trefoil factor 3 (protein, UniProt Q03191 23-81)
chain: QEFVGLSPSQCMVPANVRVDCGYPTVTSEQCNNRGCCFDSSIPNVPWCFKPLQETECTF
What does the source list for B1?
binding [3]: no binding (only mucus pretreated with 100 mM DTT); binding [4]: no binding (only mucus pretreated with 100 mM DTT); binding [5]: binds; binding [6]: binds

Results are given in words; binding and its absence hold for the method and conditions named. In cells and extracts the contact can be indirect. For some assays here: A result given as binding can be weak or reduced; the word gives no strength.
